Measurements taken from PubChem BioAssay AID540276 (National Center for Advancing Translational Sciences (NCATS), 2011).
About 5,400 (1.8%) of roughly 300,000 compounds were called active. Inconclusive results, whose numbers are uncertain, are shown with a selection of clear calls. Calls come from the whole dose curve; tested in HEK293 cells. Potencies beside an inconclusive call are fits to weak or partial responses and may not hold up.

Experiment: qHTS for inhibitors of binding or entry into cells for Marburg Virus
Details: Marburg virus pseudotyped entry inhibition, cell reporter; series mostly up to 37.8 µM
Potency is the fitted concentration of half-maximal effect.

SMILES	Potency
CCn1c2ccccc2c2cc(NC(=O)c3ccc(C)c([N+](=O)[O-])c3)ccc21	inactive
CCc1ccc(CNC(=O)CSc2cc(=O)n(C)c3ccc(Cl)cc23)cc1	inactive
CC1CN=C2C(C(=O)Nc3ccccc3)=C(O)CC(c3ccccc3)N21 (stereo unspecified)	inconclusive: 15.8 µM [inhibitor, single point]
Cc1nc2nc(SCC(=O)NCc3ccco3)nn2c(C)c1Cc1ccccc1	inconclusive: 15.8 µM [inhibitor, single point]
CC(C)Cc1csc(NC(=O)c2ccc(F)cc2)c1C(=O)O	inconclusive: 0.178 µM [inhibitor, full curve, poor fit]
COc1cc2[nH]c3c(OC)ncnc3c2cc1OC	inconclusive: 6.31 µM [inhibitor, single point]
CCC(Sc1ncnc2c1c(-c1ccccc1)cn2-c1ccc(OC)cc1)C(=O)OC (stereo unspecified)	inconclusive: 6.31 µM [inhibitor, single point]
COc1cc(/C=C/c2cc(OC(C)=O)c3ccccc3n2)c(OC(C)=O)c([N+](=O)[O-])c1	inconclusive: 25.9 µM [inhibitor, partial curve, poor fit]
CSCCC(NS(=O)(=O)c1ccccc1F)C(=O)NCC(c1ccco1)N(C)C (stereo unspecified)	inconclusive: 31.6 µM [inhibitor, partial curve, poor fit]
Cc1ccc(N2CCNCC2C)cc1 (stereo unspecified)	inconclusive: 1.41 µM [activator, full curve]
Cc1ccc(N2C(=O)c3ccccc3C2C(=O)c2ccc(O)cc2O)cc1 (stereo unspecified)	inconclusive: 5.01 µM [inhibitor, full curve, poor fit]
Cc1ccccc1C(=O)NCCCCc1ccccc1	inconclusive: 5.62 µM [activator, single point]
CCCC(C(=O)n1nc(C)cc1C)C(NS(=O)(=O)c1ccc(C)cc1)c1ccccc1 (stereo unspecified)	inconclusive: 10 µM [inhibitor, partial curve, poor fit]
CCOP(=O)(c1ccccc1)c1nc(-c2ccccc2C)oc1N1CCCCC1 (stereo unspecified)	inconclusive: 35.5 µM [inhibitor, single point]
Cc1ccccc1-c1noc(-c2ccc(O)cc2)n1	inconclusive: 29.1 µM [inhibitor, single point]
Cc1cc(C)nc(NC(=O)C(c2ccccc2)c2ccccc2)c1	inconclusive: 7.08 µM [inhibitor, partial curve, poor fit]
CC(C)c1ccc(NS(=O)(=O)c2ccc(Cl)nc2)cc1	inactive
CCN(CC)CCCNC(=O)c1ccc(S(=O)(=O)Nc2ccc(C)c(C)c2)cc1	inconclusive: 35.5 µM [inhibitor, partial curve, poor fit]
CCCn1c2c(c(=N)c3c1CCC3)CCCC2	inconclusive: 22.4 µM [inhibitor, single point]
CCCc1nn(C(=O)c2ccccc2)c2c1C(=O)CC(C)(C)C2	inconclusive: 16.4 µM [activator, single point]
O=C1CC2CC1C(C(=O)O)C2C(=O)O (stereo unspecified)	inconclusive: 10 µM [activator, partial curve, poor fit]
N#CC1=C(S)N=C(N)C(c2nc(-c3ccccc3)cs2)C12CCCCC2 (stereo unspecified)	inconclusive: 35.5 µM [inhibitor, single point]

SMILES	Potency
Cc1ccc(/C=N/NC(=O)c2cc(C3CC3)nc3ccccc23)o1	inconclusive: 6.31 µM [inhibitor, full curve, poor fit]
O=C(CC(c1ccccc1)c1ccccc1)Nc1ccc(Cl)cn1	inconclusive: 17.8 µM [inhibitor, single point]
CCOCCCNC(=O)C(c1ccc(C)cc1)N(Cc1ccc2c(c1)OCO2)C(=O)c1ccc(NC(C)=O)cc1 (stereo unspecified)	inconclusive: 12.6 µM [inhibitor, partial curve, poor fit]
Cc1ccc(-c2nc3ccccc3c(=O)n2-c2ccc(O)cc2)cc1	inconclusive: 1.26 µM [inhibitor, partial curve, poor fit]
CCOC(=O)CC(=O)CSc1ncnc2c1cnn2-c1ccccc1	inactive
CC(C)Nc1ccc(-c2nc(-c3ccco3)no2)cc1[N+](=O)[O-]	inactive
COC(=O)c1ccc(C(=O)OC)c(NC(=O)COC(=O)c2ccc(OC)c(OC)c2OC)c1	inconclusive: 10 µM [inhibitor, single point]
CCC(C)(C)n1nnnc1CN1CCc2ccccc21	inactive
c1ccc(Nc2c(-c3c[nH]c4ccccc34)nc3ccccn23)cc1	inconclusive: 12.6 µM [activator, partial curve, poor fit]
O=C1C(=O)c2c(C(=O)c3ccccc3)coc2-c2ccccc21	inconclusive: 35.5 µM [inhibitor, single point]
O=C(COc1ccccc1)Nc1ccc(N2CCN(C(=O)c3cccs3)CC2)cc1	inconclusive: 35.5 µM [inhibitor, single point]
CC1(C)CC(=O)c2cc(C(=O)NC3CCSC3=O)c(=O)n(-c3ccc(Cl)cc3)c2C1 (stereo unspecified)	inconclusive: 4.47 µM [activator, full curve, poor fit]
CSc1ccc(C(C(C(=O)c2cccs2)N2CCOCC2)N2CCOCC2)cc1 (stereo unspecified)	inconclusive: 20 µM [inhibitor, partial curve, poor fit]
Cc1onc(-c2ccccc2Cl)c1C(O)c1ccc(F)cc1 (stereo unspecified)	inactive
CN(Cc1ccccc1)C(=O)Nc1ccc2c(c1)N(C)C(=O)c1ccccc1S2	active: 10 µM
COc1ccc(N(CC(=O)NCc2cccs2)S(=O)(=O)c2cccc(C)c2)cc1	inactive
Cc1c(NC(=O)c2ccccc2)c(=O)n(-c2ccccc2)n1C	inactive
CCC(c1nnnn1Cc1ccco1)N(Cc1ccccc1OC)Cc1cc2cc(C)ccc2[nH]c1=O (stereo unspecified)	inconclusive: 5.01 µM [inhibitor, full curve, poor fit]
Cc1ccc(CNCCNCCO)s1	inactive
CC1=CC(C)(C)N2C(=O)C(=O)c3cc(OC(=O)c4ccco4)cc1c32	inactive
CCOC(=O)N1CCN(C(=O)c2cc3c(-c4cccc(OC)c4)nn(C)c3s2)CC1	inconclusive: 3.16 µM [inhibitor, partial curve, poor fit]
CC(C)c1ccc(NC(=O)c2n[nH]c(=O)c3ccccc23)cc1	inconclusive: 2.82 µM [activator, full curve]

SMILES	Potency
CC(C)Cc1ccc(-c2cc(=O)[nH][nH]2)cc1	inconclusive: 5.62 µM [inhibitor, single point]
COc1ccccc1-c1nc(S(=O)(=O)c2ccc(Cl)cc2)c(N(C)C)o1	inconclusive: 0.82 µM [inhibitor, partial curve, poor fit]
O=C(c1ccccn1)N1CCN(S(=O)(=O)c2ccccc2)CC1	inactive
COc1ccc(-c2cn3c(C)c(C(=O)Nc4cc(NC(C)=O)ccc4OC)sc3n2)cc1	inconclusive: 1.3 µM [inhibitor, full curve, poor fit]
Nc1ccc(C(=O)N/N=C/c2cn(Cc3ccccc3F)c3ccccc23)cc1	inactive
COc1ccc(N2CCN(C(=O)c3ccc(CS(=O)Cc4ccc(Cl)cc4)o3)CC2)cc1 (stereo unspecified)	inconclusive: 0.562 µM [activator, full curve, poor fit]
COc1ccccc1OC(C)C(=O)Nc1ccc(-c2nc3ccccc3s2)cc1 (stereo unspecified)	inconclusive: 0.562 µM [activator, full curve, poor fit]
CCN(Cc1ccccc1)C(=O)COC(=O)c1cc(=O)[nH]c2ccccc12	inconclusive: 0.316 µM [inhibitor, partial curve, poor fit]
O=C(NCc1cccs1)C1CCCN(c2ncccn2)C1 (stereo unspecified)	inconclusive: 29.1 µM [activator, single point]
CS(=O)(=O)c1cccc(C(=O)Nc2nnc(C3=COCCO3)o2)c1	inconclusive: 1.26 µM [inhibitor, single point]
CCc1ccc(NC(=O)CCn2nc(-c3ccccc3OC)c3c(C)cc(C)nc32)cc1	inconclusive: 35.5 µM [inhibitor, single point]
CON(C)S(=O)(=O)c1cccc(C(=O)Nc2ccc(S(=O)(=O)NC3=NCCCCC3)cc2)c1	inactive
COc1ccc(OC)c(NC(=O)CSc2nnc3ccc4ccccc4n23)c1	inconclusive: 6.31 µM [inhibitor, single point]
COc1ccc(CCNc2nc(-c3sc(C)nc3C)cs2)cc1OC	inconclusive: 29.1 µM [inhibitor, single point]
Cc1ccc(CSc2nnc(CCNC(=O)OC(C)(C)C)o2)cc1	inconclusive: 6.31 µM [activator, single point]
Cc1noc(C)c1S(=O)(=O)NCCN1CCN(c2ccccc2)CC1	inconclusive: 3.16 µM [activator, partial curve, poor fit]
Brc1ccccc1-c1nnc(COc2cccc3cccnc23)o1	inactive
CCC(=O)Nc1ccc2c(c1)ncn2-c1ccc(OC)cc1	inconclusive: 0.0041 µM [inhibitor, full curve, poor fit]
CCN1CC2=C(OC(N)=C(C#N)C2c2cccs2)/C(=C\c2cccs2)C1 (stereo unspecified)	inconclusive: 7.3 µM [inhibitor, partial curve, poor fit]
CC(N=Cc1nc(-c2ccccc2)oc1O)c1ccccc1 (stereo unspecified)	inconclusive: 16.4 µM [inhibitor, single point]
CC(=O)Nc1ccc2nc(NC(=O)COc3ccccc3C)sc2c1	inactive
Cc1cc(C)n(CCc2nc(-c3ccc(-c4ccccc4)cc3)cs2)n1	inactive

13 neighbouring compounds already listed, for reference:
SMILES	Potency
COc1ccc(N2CCN(C(=O)c3ccc(CS(=O)Cc4ccc(Cl)cc4)o3)CC2)cc1 (stereo unspecified)	inconclusive: 0.562 µM [activator, full curve, poor fit]
COc1ccccc1OC(C)C(=O)Nc1ccc(-c2nc3ccccc3s2)cc1 (stereo unspecified)	inconclusive: 0.562 µM [activator, full curve, poor fit]
CCN(Cc1ccccc1)C(=O)COC(=O)c1cc(=O)[nH]c2ccccc12	inconclusive: 0.316 µM [inhibitor, partial curve, poor fit]
O=C(NCc1cccs1)C1CCCN(c2ncccn2)C1 (stereo unspecified)	inconclusive: 29.1 µM [activator, single point]
CS(=O)(=O)c1cccc(C(=O)Nc2nnc(C3=COCCO3)o2)c1	inconclusive: 1.26 µM [inhibitor, single point]
CCc1ccc(NC(=O)CCn2nc(-c3ccccc3OC)c3c(C)cc(C)nc32)cc1	inconclusive: 35.5 µM [inhibitor, single point]
CON(C)S(=O)(=O)c1cccc(C(=O)Nc2ccc(S(=O)(=O)NC3=NCCCCC3)cc2)c1	inactive
COc1ccc(OC)c(NC(=O)CSc2nnc3ccc4ccccc4n23)c1	inconclusive: 6.31 µM [inhibitor, single point]
COc1ccc(CCNc2nc(-c3sc(C)nc3C)cs2)cc1OC	inconclusive: 29.1 µM [inhibitor, single point]
Cc1ccc(CSc2nnc(CCNC(=O)OC(C)(C)C)o2)cc1	inconclusive: 6.31 µM [activator, single point]
Cc1noc(C)c1S(=O)(=O)NCCN1CCN(c2ccccc2)CC1	inconclusive: 3.16 µM [activator, partial curve, poor fit]
Brc1ccccc1-c1nnc(COc2cccc3cccnc23)o1	inactive
CCC(=O)Nc1ccc2c(c1)ncn2-c1ccc(OC)cc1	inconclusive: 0.0041 µM [inhibitor, full curve, poor fit]
